Some of the results follow.
What was measured:
Assay in all cases: log2 fold change, soluble protein after heating vs DMSO (PISA); higher = thermal stabilisation; K562 cells, 10 uM, 30 min; active = over 0.2 and 3.5 SD of the protein, either way, in both replicates (recomputed)
[1] = compound: C1=CC=C(C=C1)[C@H](COC2=CC3=C(C=C2)NC(=O)N3)NC(=O)C4=CC=CN(C4=O)CC5=CC(=C(C=C5)F)F
Summary of the method: (§1)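 Soluble protein was defined as the supernatant after 21,000xg for 90 min. It came from K562 cells at 2×10^6 cells/mL given 10 μM compound for 30 min, heated in aliquots for 3 min across 48°C-58°C, pooled, and extracted in PBS with 0.5% NP-40 at 4°C, and was quantified by TMTpro 16plex LC-MS/MS with equalised channel sums. Thermal stability against control samples, from duplicates, is reported as log2 fold change.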

Protein sequences, listed by entry. Tags and fused reporters are not part of them. Lines headed by an entry give the natural chain unless they say otherwise; changes in a name come on top.
UniProt Q13888: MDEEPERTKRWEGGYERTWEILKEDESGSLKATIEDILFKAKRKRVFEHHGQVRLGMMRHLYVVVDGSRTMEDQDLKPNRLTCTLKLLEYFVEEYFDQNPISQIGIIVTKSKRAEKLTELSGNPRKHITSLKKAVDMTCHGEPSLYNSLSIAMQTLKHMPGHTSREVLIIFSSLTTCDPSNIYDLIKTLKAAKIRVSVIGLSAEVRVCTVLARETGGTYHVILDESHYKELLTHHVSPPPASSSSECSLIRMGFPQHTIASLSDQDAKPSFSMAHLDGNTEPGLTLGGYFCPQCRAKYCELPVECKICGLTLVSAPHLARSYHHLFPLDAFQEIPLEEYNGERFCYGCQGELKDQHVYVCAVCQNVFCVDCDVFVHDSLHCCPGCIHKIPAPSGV
UniProt Q969Y2: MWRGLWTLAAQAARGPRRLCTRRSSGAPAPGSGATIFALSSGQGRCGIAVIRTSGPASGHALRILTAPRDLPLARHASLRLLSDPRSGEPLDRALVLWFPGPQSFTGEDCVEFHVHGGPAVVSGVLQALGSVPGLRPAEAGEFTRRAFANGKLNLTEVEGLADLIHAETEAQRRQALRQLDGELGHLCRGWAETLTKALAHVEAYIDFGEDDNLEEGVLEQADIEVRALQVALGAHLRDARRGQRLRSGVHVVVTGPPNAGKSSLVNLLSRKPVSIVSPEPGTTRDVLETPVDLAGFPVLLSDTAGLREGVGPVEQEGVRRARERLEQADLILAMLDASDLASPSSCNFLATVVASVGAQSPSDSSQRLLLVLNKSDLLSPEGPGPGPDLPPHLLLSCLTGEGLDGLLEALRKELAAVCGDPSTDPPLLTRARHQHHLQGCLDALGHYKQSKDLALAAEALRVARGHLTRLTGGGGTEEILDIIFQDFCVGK
UniProt Q9Y5Z4: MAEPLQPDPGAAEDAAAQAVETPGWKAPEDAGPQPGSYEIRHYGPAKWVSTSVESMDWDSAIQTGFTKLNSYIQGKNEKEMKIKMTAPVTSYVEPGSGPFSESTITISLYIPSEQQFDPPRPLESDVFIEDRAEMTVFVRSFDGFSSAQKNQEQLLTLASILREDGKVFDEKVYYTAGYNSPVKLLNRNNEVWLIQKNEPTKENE
UniProt Q969S8: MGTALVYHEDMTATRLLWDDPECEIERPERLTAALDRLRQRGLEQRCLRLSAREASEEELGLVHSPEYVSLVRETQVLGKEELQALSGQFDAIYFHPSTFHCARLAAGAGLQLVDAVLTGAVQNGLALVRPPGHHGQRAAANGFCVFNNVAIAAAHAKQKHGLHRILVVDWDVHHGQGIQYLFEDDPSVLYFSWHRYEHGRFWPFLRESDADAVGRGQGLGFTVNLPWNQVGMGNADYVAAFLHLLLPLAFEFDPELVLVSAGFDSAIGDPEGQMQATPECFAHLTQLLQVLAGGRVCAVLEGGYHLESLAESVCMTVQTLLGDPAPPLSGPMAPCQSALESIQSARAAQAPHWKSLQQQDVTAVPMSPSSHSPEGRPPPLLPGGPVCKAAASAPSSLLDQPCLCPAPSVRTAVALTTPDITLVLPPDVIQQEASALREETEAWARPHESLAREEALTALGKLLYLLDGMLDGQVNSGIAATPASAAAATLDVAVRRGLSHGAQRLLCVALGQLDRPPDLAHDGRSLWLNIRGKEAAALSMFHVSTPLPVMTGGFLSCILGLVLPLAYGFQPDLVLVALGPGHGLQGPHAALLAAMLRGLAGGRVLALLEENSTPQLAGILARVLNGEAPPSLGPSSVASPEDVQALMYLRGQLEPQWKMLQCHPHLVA
UniProt Q92769, whole entry, looked up: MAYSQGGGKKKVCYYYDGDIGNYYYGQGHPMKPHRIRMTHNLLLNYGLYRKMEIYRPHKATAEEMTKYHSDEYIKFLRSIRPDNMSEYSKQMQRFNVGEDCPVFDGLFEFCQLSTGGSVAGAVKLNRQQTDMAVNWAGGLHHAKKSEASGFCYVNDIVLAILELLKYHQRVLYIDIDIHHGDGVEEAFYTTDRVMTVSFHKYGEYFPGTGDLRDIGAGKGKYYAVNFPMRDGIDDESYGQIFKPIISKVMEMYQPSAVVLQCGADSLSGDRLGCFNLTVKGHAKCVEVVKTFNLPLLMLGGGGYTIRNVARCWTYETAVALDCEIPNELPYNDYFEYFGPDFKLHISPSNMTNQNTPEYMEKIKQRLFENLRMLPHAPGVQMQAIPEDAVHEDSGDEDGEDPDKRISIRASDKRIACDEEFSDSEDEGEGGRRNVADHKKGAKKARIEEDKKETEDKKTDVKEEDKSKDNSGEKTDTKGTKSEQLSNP
UniProt P78347: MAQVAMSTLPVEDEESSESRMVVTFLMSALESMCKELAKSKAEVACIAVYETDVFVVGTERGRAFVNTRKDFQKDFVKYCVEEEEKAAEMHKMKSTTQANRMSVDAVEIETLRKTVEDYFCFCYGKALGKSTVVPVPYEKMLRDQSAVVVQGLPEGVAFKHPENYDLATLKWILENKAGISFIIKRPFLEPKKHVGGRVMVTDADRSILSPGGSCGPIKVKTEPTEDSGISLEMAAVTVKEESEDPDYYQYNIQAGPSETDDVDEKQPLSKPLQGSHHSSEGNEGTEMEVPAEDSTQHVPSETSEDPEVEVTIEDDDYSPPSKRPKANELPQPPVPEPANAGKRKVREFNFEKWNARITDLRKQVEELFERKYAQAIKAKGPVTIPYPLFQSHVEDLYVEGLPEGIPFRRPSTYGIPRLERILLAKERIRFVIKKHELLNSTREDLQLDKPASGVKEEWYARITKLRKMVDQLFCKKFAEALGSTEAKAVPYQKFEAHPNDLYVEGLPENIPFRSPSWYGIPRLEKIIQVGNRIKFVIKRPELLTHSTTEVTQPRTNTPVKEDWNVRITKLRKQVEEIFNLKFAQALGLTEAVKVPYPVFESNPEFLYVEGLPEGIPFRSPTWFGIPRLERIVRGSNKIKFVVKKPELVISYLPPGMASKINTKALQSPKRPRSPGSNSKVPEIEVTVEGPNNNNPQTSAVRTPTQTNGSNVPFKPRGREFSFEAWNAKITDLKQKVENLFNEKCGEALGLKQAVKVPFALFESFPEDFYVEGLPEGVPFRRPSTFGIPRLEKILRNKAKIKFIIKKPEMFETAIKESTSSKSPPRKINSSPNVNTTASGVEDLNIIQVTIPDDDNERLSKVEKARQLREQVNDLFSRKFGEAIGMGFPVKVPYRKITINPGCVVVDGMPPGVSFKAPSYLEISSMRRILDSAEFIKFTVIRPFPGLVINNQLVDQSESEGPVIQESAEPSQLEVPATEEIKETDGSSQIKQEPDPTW
UniProt P30711: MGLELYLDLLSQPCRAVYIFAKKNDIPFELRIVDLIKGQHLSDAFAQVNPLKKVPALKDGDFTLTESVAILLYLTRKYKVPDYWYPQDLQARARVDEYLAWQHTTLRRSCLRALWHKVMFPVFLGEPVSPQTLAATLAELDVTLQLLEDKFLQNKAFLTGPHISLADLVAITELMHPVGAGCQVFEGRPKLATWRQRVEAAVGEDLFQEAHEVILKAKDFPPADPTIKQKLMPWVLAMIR
UniProt Q9NYZ3: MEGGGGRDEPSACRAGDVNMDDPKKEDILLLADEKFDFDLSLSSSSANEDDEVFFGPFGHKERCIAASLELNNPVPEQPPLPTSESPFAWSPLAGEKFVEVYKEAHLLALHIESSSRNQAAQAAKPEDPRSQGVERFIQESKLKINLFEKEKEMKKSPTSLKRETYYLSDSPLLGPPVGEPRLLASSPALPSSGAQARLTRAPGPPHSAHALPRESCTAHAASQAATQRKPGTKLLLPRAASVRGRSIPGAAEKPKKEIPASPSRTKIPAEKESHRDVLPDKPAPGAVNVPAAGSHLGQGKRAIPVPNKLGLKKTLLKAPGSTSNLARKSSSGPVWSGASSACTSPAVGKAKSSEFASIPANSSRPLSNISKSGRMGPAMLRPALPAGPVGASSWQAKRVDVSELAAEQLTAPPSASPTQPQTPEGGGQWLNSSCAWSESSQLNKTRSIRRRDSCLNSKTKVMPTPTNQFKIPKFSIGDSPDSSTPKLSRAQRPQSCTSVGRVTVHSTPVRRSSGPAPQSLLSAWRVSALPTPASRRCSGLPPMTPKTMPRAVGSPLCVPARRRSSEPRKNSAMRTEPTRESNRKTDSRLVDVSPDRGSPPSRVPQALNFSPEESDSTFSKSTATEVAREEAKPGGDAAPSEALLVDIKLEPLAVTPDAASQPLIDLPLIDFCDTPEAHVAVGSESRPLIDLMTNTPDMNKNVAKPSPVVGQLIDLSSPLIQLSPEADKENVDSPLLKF
UniProt Q9Y2Q3: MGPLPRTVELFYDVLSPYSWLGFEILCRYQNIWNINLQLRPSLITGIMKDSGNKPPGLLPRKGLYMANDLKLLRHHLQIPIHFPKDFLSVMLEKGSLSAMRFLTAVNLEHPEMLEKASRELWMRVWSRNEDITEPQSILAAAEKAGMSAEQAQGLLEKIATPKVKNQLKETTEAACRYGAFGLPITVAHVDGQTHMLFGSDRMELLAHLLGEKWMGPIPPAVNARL
UniProt O00178: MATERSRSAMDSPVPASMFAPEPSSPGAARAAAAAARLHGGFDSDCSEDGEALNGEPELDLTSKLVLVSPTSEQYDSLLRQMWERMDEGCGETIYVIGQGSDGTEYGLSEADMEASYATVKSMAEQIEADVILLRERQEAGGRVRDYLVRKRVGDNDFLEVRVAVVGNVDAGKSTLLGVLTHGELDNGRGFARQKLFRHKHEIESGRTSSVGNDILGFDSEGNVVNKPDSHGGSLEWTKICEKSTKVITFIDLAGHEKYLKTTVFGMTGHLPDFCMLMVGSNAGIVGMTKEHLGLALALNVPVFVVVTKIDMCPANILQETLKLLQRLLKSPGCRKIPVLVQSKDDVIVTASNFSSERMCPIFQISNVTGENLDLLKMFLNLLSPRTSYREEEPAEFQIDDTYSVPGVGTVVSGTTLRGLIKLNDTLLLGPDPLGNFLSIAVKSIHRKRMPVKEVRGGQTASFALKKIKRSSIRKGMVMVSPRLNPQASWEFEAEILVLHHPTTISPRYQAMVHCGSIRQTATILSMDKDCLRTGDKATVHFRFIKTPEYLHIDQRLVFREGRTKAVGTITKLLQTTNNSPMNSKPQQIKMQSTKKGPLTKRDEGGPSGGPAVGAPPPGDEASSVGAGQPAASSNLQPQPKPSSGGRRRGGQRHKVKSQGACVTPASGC
UniProt P15170, whole entry, looked up: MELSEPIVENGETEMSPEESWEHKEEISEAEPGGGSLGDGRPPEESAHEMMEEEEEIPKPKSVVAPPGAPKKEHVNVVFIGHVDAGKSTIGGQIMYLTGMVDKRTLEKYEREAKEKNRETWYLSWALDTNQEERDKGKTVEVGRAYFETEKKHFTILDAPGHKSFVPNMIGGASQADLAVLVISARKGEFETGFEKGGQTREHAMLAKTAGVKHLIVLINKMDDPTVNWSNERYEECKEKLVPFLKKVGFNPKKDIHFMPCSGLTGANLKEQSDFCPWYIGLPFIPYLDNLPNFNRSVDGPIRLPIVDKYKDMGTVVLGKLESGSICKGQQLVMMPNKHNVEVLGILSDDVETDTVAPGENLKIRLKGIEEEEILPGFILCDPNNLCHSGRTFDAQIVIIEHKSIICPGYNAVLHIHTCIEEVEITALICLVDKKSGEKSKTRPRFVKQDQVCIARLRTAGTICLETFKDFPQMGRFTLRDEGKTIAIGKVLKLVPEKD
UniProt Q16836: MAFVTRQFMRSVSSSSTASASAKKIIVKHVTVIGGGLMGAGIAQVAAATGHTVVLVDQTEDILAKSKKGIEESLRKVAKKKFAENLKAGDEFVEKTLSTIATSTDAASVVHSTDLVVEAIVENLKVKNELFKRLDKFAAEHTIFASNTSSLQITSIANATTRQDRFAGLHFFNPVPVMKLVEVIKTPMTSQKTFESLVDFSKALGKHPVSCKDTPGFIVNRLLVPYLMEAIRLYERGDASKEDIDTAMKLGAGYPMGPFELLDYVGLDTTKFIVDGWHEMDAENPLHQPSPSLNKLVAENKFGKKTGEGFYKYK
UniProt P21266: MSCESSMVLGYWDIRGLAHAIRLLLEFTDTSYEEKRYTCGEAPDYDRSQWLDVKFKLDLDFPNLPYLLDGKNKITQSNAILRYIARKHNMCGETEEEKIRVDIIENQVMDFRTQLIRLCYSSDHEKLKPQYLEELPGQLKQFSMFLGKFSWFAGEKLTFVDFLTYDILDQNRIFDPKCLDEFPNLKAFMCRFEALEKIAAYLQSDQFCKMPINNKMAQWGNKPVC
UniProt P02008: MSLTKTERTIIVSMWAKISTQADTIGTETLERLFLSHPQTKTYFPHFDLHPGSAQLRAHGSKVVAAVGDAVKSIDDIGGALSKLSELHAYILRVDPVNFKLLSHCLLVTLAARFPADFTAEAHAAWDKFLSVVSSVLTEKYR
UniProt Q7Z4H3: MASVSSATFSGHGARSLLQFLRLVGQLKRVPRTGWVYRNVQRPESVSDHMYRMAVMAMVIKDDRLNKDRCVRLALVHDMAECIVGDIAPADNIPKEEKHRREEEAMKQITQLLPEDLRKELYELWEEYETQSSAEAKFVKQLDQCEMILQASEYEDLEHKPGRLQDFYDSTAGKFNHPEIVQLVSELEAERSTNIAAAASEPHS

[2] = compound: CC1=C(SC2=C1C(=N[C@H](C3=NN=C(N32)C)CC(=O)N)C4=CC=C(C=C4)Cl)C
Summary of the method: as §1

[3] = compound: CC1=C2C(=CC=C1)N=C(N(C2=O)C3=CC=CC=C3C)CN4C=NC5=C(N=CN=C54)N
Summary of the method: as §1

[4] = compound: Cc1sc2c(c1C)C(c1ccc(Cl)cc1)=N[C@@H](CC(=O)OC(C)(C)C)c1nnc(C)n1-2
Summary of the method: as §1

[5] = compound: c1ccc([C@@H]2C[C@H]2NC2CCNCC2)cc1
Summary of the method: as §1

Measured: log2 fold change

GSTZ1 (UniProt G3V4T6)
inactive: [1] -0.034 | [2] 0.093 | [3] 0.091 | [4] -0.027 | [5] 0

GTF2H2 (UniProt Q13888)
inactive: [1] 0.033 | [2] -0.013 | [3] 0.047 | [4] -0.001 | [5] -0.004

GTPBP3 isoform 2 (UniProt Q969Y2)
inactive: [1] -0.032 | [2] -0.006 | [3] 0.097 | [4] -0.029 | [5] -0.026

HEBP2 (UniProt Q9Y5Z4)
inactive: [1] -0.029 | [2] 0.024 | [3] -0.036 | [4] 0.001 | [5] 0.009

HDAC10 (UniProt Q969S8)
inactive: [1] -0.061 | [2] -0.028 | [3] 0.07 | [4] 0.12 | [5] -0.051

HEATR5B (UniProt Q9P2D3)
inactive: [1] -0.029 | [2] -0.015 | [3] 0.052 | [4] -0.071 | [5] 0.016

HDAC2 (UniProt Q92769)
inactive: [1] 0.022 | [2] 0.042 | [3] 0.08 | [4] -0.002 | [5] 0.111

HDDC3 (UniProt Q8N4P3)
inactive: [1] -0.005 | [2] 0.023 | [3] 0.126 | [4] 0.032 | [5] 0.024

GTF2I (UniProt P78347)
inactive: [1] -0.07 | [2] 0.077 | [3] 0.104 | [4] -0.037 | [5] 0.007

HECTD1 (UniProt Q9ULT8)
inactive: [1] 0.009 | [2] 0 | [3] 0.098 | [4] 0.051 | [5] -0.004

GSTT1 (UniProt P30711)
inactive: [1] 0.032 | [2] 0.121 | [3] 0.165 | [4] -0.146 | [5] 0.026

GTSE1 (UniProt Q9NYZ3)
inactive: [1] -0.104 | [2] -0.2 | [3] -0.042 | [4] 0.098 | [5] 0.042

GSTK1 (UniProt Q9Y2Q3)
inactive: [1] -0.042 | [2] 0.148 | [3] 0.147 | [4] -0.121 | [5] -0.019

H1-2 (UniProt P16403)
inactive: [1] 0.139 | [2] -0.317 | [3] -0.252 | [4] 0.068 | [5] 0

GTF3C5 isoform 3 (UniProt Q9Y5Q8)
inactive: [1] -0.097 | [2] -0.082 | [3] 0.103 | [4] 0.049 | [5] -0.159

GTPBP1 (UniProt O00178)
inactive: [1] 0.002 | [2] 0.033 | [3] 0.007 | [4] 0.027 | [5] -0.016

GSPT1 isoform 3 (UniProt P15170)
inactive: [1] -0.023 | [2] 0.009 | [3] 0.08 | [4] -0.036 | [5] -0.053

HBD (UniProt P02042)
inactive: [1] -0.073 | [2] 0.119 | [3] 0.08 | [4] -0.017 | [5] -0.077

HADH isoform 2 (UniProt Q16836)
inactive: [1] -0.011 | [2] -0.003 | [3] -0.017 | [4] -0.001 | [5] 0.032

GSTM3 (UniProt P21266)
inactive: [1] 0.036 | [2] 0.004 | [3] 0.037 | [4] -0.043 | [5] 0.001

GSN (UniProt P06396)
inactive: [1] -0.047 | [2] -0.031 | [3] 0.08 | [4] 0.022 | [5] 0.009

HBZ (UniProt P02008)
inactive: [1] 0.047 | [2] 0.191 | [3] 0.091 | [4] -0.132 | [5] -0.009

HDDC2 (UniProt Q7Z4H3)
inactive: [1] 0.009 | [2] 0.057 | [3] -0.012 | [4] -0.071 | [5] -0.038

H4C1 (UniProt P62805)
inactive: [1] 0.078 | [2] -0.248 | [3] -0.298 | [4] -0.273 | [5] 0.21

Quoted at random: two entries already listed, in no set order.
GSTM3 (UniProt P21266)
inactive: [1] 0.036 | [2] 0.004 | [3] 0.037 | [4] -0.043 | [5] 0.001

H4C1 (UniProt P62805)
inactive: [1] 0.078 | [2] -0.248 | [3] -0.298 | [4] -0.273 | [5] 0.21

From the supplement of paper PMC10849652
